Source: PubChem BioAssay AID504444 (National Center for Advancing Translational Sciences (NCATS), 2011)
The campaign covered roughly 360,000 compounds. About 7,500 (2.1%) were called active. The inconclusive results got no clear call from the source; some entries with a clear call stand among them for comparison. Calls follow the shape of the dose curve; as a rule, active = well fitted inhibition curve with a large enough effect; inconclusive = small, poorly fitted or top-dose-only effect, or effect the other way; inactive = flat fitted curve, though single readings scatter. Where the call is inconclusive, the potency comes from a doubtful curve fit.
% is scaled to controls: 0 for no effect and ±100 for the full control effect; potency is read from the fitted curve at half-maximal effect.

Assay: Nrf2 qHTS screen for inhibitors; also: nearly all actives have a fitted effect of over 60% in size
Details: A549 ARE-Fluc reporter, luciferase luminescence, 18-24 h; activity change, negative = inhibition: at 46 µM (top of the series)
Summary of the method: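 Two sequential reads on A549 ARE_Fluc cells exposed to compound for 18-24 h: a CellTiter-Fluor fluorescence read for viability, then a luciferase luminescence read for Nrf2/ARE activity.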
In the case of `Cc1ccccc1NC(=O)Cn1cc(S(=O)(=O)N2CCCC2)c(S(=O)(=O)N2CCCC2)c1`, the Potency is reported as inconclusive: 7.31 µM [activator, partial curve, poor fit]. In the case of `CC1=C(C(=O)Nc2ccccc2)C(c2ccccn2)n2nc(SCc3ccccc3Cl)nc2N1` (configuration not stated), the activity change, negative = inhibition is reported as inactive: 4.62% [at 9.27 µM]. For `CS(=O)(=O)Nc1ccccc1C(=O)Nc1cccc(Cl)c1`, the Potency was inconclusive: 16.4 µM [falling, single point]. With `COc1ccc(CCn2c(-c3cccc([N+](=O)[O-])c3)nc3nc4ccccc4nc32)cc1OC` the “activity change, negative = inhibition” value was inactive: 0.215%. In the case of `c1ccc(-c2cn3c4c(sc3n2)CCCC4)cc1`, the Potency is reported as inconclusive: 3.66 µM [activator, full curve]. For `C/C(=N\NC(=O)c1ccc2c(c1)OCO2)c1ccc2c(c1)OCO2`, the Potency was inconclusive: 10.3 µM [activator, partial curve]. With `O=C(CSc1ccccc1)Nc1cccc(S(=O)(=O)N2CCCCC2)c1` the Potency was inconclusive: 16.4 µM [falling, partial curve, poor fit]. For `CCN(CC)C(=O)COc1ccc(-c2ccccc2)cc1`, the Potency was inconclusive: 4.61 µM [activator, full curve, poor fit]. With `CC(=O)c1ccc(NC(=O)COC(=O)CCN2C(=O)c3cccc([N+](=O)[O-])c3C2=O)cc1` the Potency was inconclusive: 7.31 µM [activator, partial curve, poor fit]. In the case of `CCCCNc1c(-c2ccc(Sc3ccc(OC)cc3)cc2)nc2cc(C)ccn12`, the Potency is reported as inconclusive: 29.1 µM [falling, single point]. In the case of `CCn1cc2nc(SCc3cccc(C)c3)n(CCc3ccccc3)c(=O)c2n1`, the Potency is reported as inconclusive: 29.1 µM [falling, single point]. In the case of `Cc1nc2c(-c3ccccc3)c(C)nn2c(C)c1CCC(=O)NCc1ccccc1`, the Potency is reported as inconclusive: 32.6 µM [falling, partial curve, poor fit]. In the case of `CCOC(=O)CSc1nc(C)c2cc(OC)ccc2n1`, the “activity change, negative = inhibition” value is reported as inactive: 6.67%. For `Cc1ccc(S(=O)(=O)n2nc(-c3ccco3)nc2NCc2ccc(N(C)C)cc2)cc1`, the Potency was inconclusive: 23.1 µM [activator, partial curve, poor fit]. For `CCc1ccc2oc(-c3ccc(C)c(NC(=O)c4ccc(C#N)cc4F)c3)nc2c1`, the Potency was inconclusive: 8.2 µM [activator, partial curve]. For `CCOc1ccc(S(=O)(=O)NCc2ccncc2)cc1NC(=O)c1ccccc1`, the Potency was active: 0.461 µM. With `O=C1NN(c2ccccc2)C(=O)/C1=C/c1coc2ccccc2c1=O` the Potency was inconclusive: 4.11 µM [activator, full curve, poor fit].
